Source: PubChem BioAssay AID1224828 (NIAID, 2016)
The whole screen tested about 17,000 reagents; this is a part drawn at random. Over the whole deposit, 762 (4.5%) got an active call. 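Active calls include both raised and lowered p65 entry, mostly lowered; wells with fewer than 50 cells lack a z-score.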 Raw values are not corrected between plates. Entries without a mark were called inactive.

Aim: 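Regulators linking TLR4 signalling to p65 nuclear translocation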 (primary screen)
System: mouse RAW264.7 G9 macrophage reporter cells (GFP-p65, Tnf promoter-mCherry)
Reagents: siRNA pool against mouse genes, 100 nM
Timing: 2 days siRNA transfection, then 40 min LPS before fixation
Conditions: LPS (Salmonella minnesota R595) at 10 ng/ml
Detection: 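Imaged p65 nuclear translocation ratio, normalised to the plate median, converted to robust z-scores and averaged across two replicates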
Reading the numbers: p65 translocation robust z-score: higher = more nuclear NF-kappaB p65 after LPS than the plate median; nuclear/cytoplasmic p65 ratio: higher = more nuclear NF-kappaB p65
Call rule: 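Called active when z exceeds 3.3 or falls under -1.56 (median of Tlr4 controls), giving activity score of at least 50; no calls for control wells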
Meaning of the calls: active = hit (p65 shift raised or lowered); inactive = no clear change

Target gene	PubChem SID	p65 translocation robust z-score	nuclear/cytoplasmic p65 ratio, rep 1	nuclear/cytoplasmic p65 ratio, rep 2	low cell count flag
D630003M21Rik (RIKEN cDNA D630003M21 gene)	SID315478665	-1.27	1.32	1.43	enough cells to score
Arl11 (ADP-ribosylation factor-like 11)	SID315478242	1.13	1.74	1.99	enough cells to score
Vmn1r189 (vomeronasal 1 receptor 189)	SID315479913	-1.56	1.12	1.1	enough cells to score
Ubac1 (ubiquitin associated domain containing 1)	SID315476148		1.36	1.25	fewer than 50 cells per well; well left out of scoring
Gpm6b (glycoprotein m6b)	SID315466994	1.56	1.8	1.84	enough cells to score
Ep400 (E1A binding protein p400)	SID315475145	0.67	1.72	1.53	enough cells to score
Asb18 (ankyrin repeat and SOCS box-containing 18)	SID315477533	0.5	1.67	1.59	enough cells to score
Clec4f (C-type lectin domain family 4, member f)	SID315470914	-0.6	1.51	1.68	enough cells to score
Fam98c (family with sequence similarity 98, member C)	SID315474789		1.41	1.38	fewer than 50 cells per well; well left out of scoring
AI593442 (expressed sequence AI593442)	SID315481627	1.14	1.8	1.84	enough cells to score
Gpcpd1 (glycerophosphocholine phosphodiesterase 1)	SID315474891	-2 (active)	1.11	1.07	enough cells to score
Ovol1 (ovo like zinc finger 1)	SID315468361		1.34	1	fewer than 50 cells per well; well left out of scoring
Pomgnt2	SID315477936	1.24	1.76	2	enough cells to score
Rtl8a (retrotransposon Gag like 8A)	SID315472253	-1	1.39	1.32	enough cells to score
Pcsk6 (proprotein convertase subtilisin/kexin type 6)	SID315468419	1.76	1.69	1.64	enough cells to score
Acyp1 (acylphosphatase 1)	SID315472288	-0.67	1.56	1.48	enough cells to score
Cdk6 (cyclin dependent kinase 6)	SID315465911	-0.26	1.71	1.3	enough cells to score
Atp5mj (ATP synthase membrane subunit j)	SID315474002		1.3	0.983	fewer than 50 cells per well; well left out of scoring
Sra1 (steroid receptor RNA activator 1)	SID315470311	0.07	1.4	1.26	enough cells to score
Gpr171 (G protein-coupled receptor 171)	SID315478699	0.71	1.62	1.67	enough cells to score
Ca14 (carbonic anhydrase 14)	SID315470190	-0.51	1.5	1.72	enough cells to score
Por (cytochrome p450 oxidoreductase)	SID315468627	1.32	1.73	1.54	enough cells to score
Cep131 (centrosomal protein 131)	SID315465587	-0.23	1.57	1.48	enough cells to score
Mgl2	SID315478047	0.11	1.74	1.56	enough cells to score
Pex14 (peroxisomal biogenesis factor 14)	SID315471424	0.36	1.49	1.47	enough cells to score
Higd1b (HIG1 domain family, member 1B)	SID315475179		1.16	1.24	fewer than 50 cells per well; well left out of scoring

Active calls, of those listed so far:
Target gene	PubChem SID	p65 translocation robust z-score	nuclear/cytoplasmic p65 ratio, rep 1	nuclear/cytoplasmic p65 ratio, rep 2	low cell count flag
Gpcpd1 (glycerophosphocholine phosphodiesterase 1)	SID315474891	-2 (active)	1.11	1.07	enough cells to score

Continued.
Target gene	PubChem SID	p65 translocation robust z-score	nuclear/cytoplasmic p65 ratio, rep 1	nuclear/cytoplasmic p65 ratio, rep 2	low cell count flag
F830045P16Rik (RIKEN cDNA F830045P16 gene)	SID315478641	0.31	1.67	1.48	enough cells to score
Prlr (prolactin receptor)	SID315468706	0.41	1.59	1.43	enough cells to score
Prlr (prolactin receptor)	SID315468707	-0.53	1.53	1.6	enough cells to score
Or1e16 (olfactory receptor family 1 subfamily E member 16)	SID315480545	1.45	1.88	1.79	enough cells to score
Ndufb3 (NADH:ubiquinone oxidoreductase subunit B3)	SID315472476	-0.34	1.85	1.44	enough cells to score
Mrnip (MRN complex interacting protein)	SID315473398		1.25	1.22	fewer than 50 cells per well; well left out of scoring
Or9g19 (olfactory receptor family 9 subfamily G member 19)	SID315480406	-0.53	1.66	1.43	enough cells to score
Per1 (period circadian clock 1)	SID315468467	0.26	1.43	1.5	enough cells to score
Nceh1 (neutral cholesterol ester hydrolase 1)	SID315481215	-1.12	1.45	1.44	enough cells to score
H1f5 (H1.5 linker histone, cluster member)	SID315471641	-0.91	1.61	1.32	enough cells to score
Tbx20 (T-box 20)	SID315471721		1.42	1.3	fewer than 50 cells per well; well left out of scoring
Nxph2 (neurexophilin 2)	SID315468277	1.56	1.97	1.74	enough cells to score
Ces2a (carboxylesterase 2A)	SID315476308	-0.57	1.35	1.47	enough cells to score
Ccdc87 (coiled-coil domain containing 87)	SID315481886		1.3	1.28	fewer than 50 cells per well; well left out of scoring
St6galnac5	SID315470492	-0.78	1.3	1.16	enough cells to score
C230071H18Rik (retired record)	SID315481883		1.15	1.39	fewer than 50 cells per well; well left out of scoring
Plppr2 (phospholipid phosphatase related 2)	SID315479221	0.22	1.62	1.87	enough cells to score
Slc12a2	SID315469272	0.17	1.45	1.63	enough cells to score
Nosip (nitric oxide synthase interacting protein)	SID315472410	1.18	1.91	1.69	enough cells to score
Lipt2 (lipoyl(octanoyl) transferase 2 (putative))	SID315472877	-0.96	1.31	1.33	enough cells to score
Zbtb1 (zinc finger and BTB domain containing 1)	SID315480783	1.58	1.66	1.4	enough cells to score
Usp2 (ubiquitin specific peptidase 2)	SID315471056	0.9	1.6	1.67	enough cells to score
Auh (AU RNA binding protein/enoyl-coenzyme A hydratase)	SID315465579	-0.16	1.69	1.5	enough cells to score
Fzd1 (frizzled class receptor 1)	SID315466773	1.18	1.68	1.74	enough cells to score
Nphp3 (nephronophthisis 3 (adolescent))	SID315474818		1.08	1.33	fewer than 50 cells per well; well left out of scoring
Zmat4 (zinc finger, matrin type 4)	SID315481242	-2.09 (active)	1.17	1.22	enough cells to score
Sort1 (sortilin 1)	SID315469378	-0.52	1.36	1.59	enough cells to score
Meltf (melanotransferrin)	SID315470746	0.59	1.8	1.64	enough cells to score
Syt5 (synaptotagmin V)	SID315471071		1.14	1.03	fewer than 50 cells per well; well left out of scoring
Cd83 (CD83 antigen)	SID315465878	1.24	1.52	1.53	enough cells to score
Ubl4b (ubiquitin-like 4B)	SID315473115		1.42	1.37	fewer than 50 cells per well; well left out of scoring
Ibsp (integrin binding sialoprotein)	SID315467359	0.32	1.4	1.49	enough cells to score
Adamts2 (ADAM metallopeptidase with thrombospondin type 1 motif 2)	SID315478021	-0.7	1.5	1.53	enough cells to score
